These results are taken from PubChem BioAssay AID493014 (National Center for Advancing Translational Sciences (NCATS), 2011).

This is one part of the list. These are further read-outs of the screen, such as a control signal, another cell line or another target. No call is given for them. Compounds called inactive in the main read-out are mostly missing here. Potencies come from curve fits of mixed quality, noted in brackets.

The nature of the assay: qHTS Assay to Find Inhibitors of Chronic Active B-Cell Receptor Signaling. Particulars: ABC-DLBCL IkBa-CBG/CBR reporter, luminescence ratio (green luciferase fused to IkBa over red control in TMD8 lymphoma cells), 4 h. The method in brief: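 Compounds up to 46 uM were incubated four hours with TMD8 cells whose green CBG68 luciferase is fused to IkappaBalpha; red CBR luminescence normalised the signal, and concentration-effect curves were fitted to fusion, red and ratio data.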
A general note: qHTS replaces the single test concentration by a dilution series.

[1] abbreviates: measured here: IkBa-CBG green luminescence.
[2] abbreviates: measured here: CBR red luminescence, cell number.

Regarding `OCc1ccnc2c(O)cccc12`, the concentration at half-maximal activity (AC50) – broadly, the concentration at which the activity in the assay is half-maximal – under setting [1] was 5.62 µM [falling, full curve]. With `CCCC12CN3CC(C)(CN(C1)C3c1ccc3c(c1)OCO3)C2=O` (stereo not drawn), the AC50 under setting [2] was 2.06 µM [rising, single point]. Same read-out and setting: next, `COc1cc2c(cc1OC)/C(=C/C(=O)c1ccccc1)NCC2`: 1 µM [rising, full curve]; `O=C(CC1Nc2ccccc2NC1=O)Nc1ccccc1` (stereo not drawn): 18.4 µM [falling, partial curve]; `O=C(Nc1ncc([N+](=O)[O-])s1)c1ccco1`: 2.24 µM [falling, full curve, poor fit]. Take `COc1ccc(-n2cc(CN(C)Cc3n[nH]c(=O)[nH]3)c(-c3cccc(F)c3)n2)cc1`: the half-maximal activity concentration (AC50) under setting [2] was 0.447 µM [rising, full curve, poor fit]. Same read-out and setting: to `COc1ccc(OCC(=O)Nc2cccc(-c3nc4ccccc4[nH]3)c2)cc1` belongs 7.94 µM [falling, partial curve, poor fit]; to `O=C(Nc1ccc2c(c1)OCO2)c1cccc(S(=O)(=O)N2CCCC2)c1`, 29.1 µM [falling, single point].

Consider `Cc1cccc(C(=O)NC(=S)NNC(=O)c2ccc(Cl)cc2)c1`, for which the AC50 runs as follows: under setting [2], 32.6 µM [rising, single point]; under setting [1], 29.1 µM [falling, single point]. Turning to `CCNC(=S)N1C2CCC1CC(NC(=O)NC1CCCCC1)C2` (stereo not drawn), the AC50 under setting [2] is 32.6 µM [rising, single point]. As for `O=C(NC1=NCCS1)c1cc(-c2ccc(-c3ccccc3)cc2)nc2ccccc12`, the AC50 under setting [2] is 2.06 µM [falling, partial curve, poor fit].

Regarding `COc1ccc(NC(=O)CCCn2cc([N+](=O)[O-])cn2)cc1`, under setting [2], the concentration at half-maximal activity (AC50) is 0.562 µM [rising, full curve, poor fit].

As to `O=C1Nc2cc(Cl)c(Cl)cc2N(O)N1c1ccccc1`, the AC50 under setting [2] is 32.6 µM [falling, partial curve, poor fit]. Take `CCOc1ccc(Oc2nc(N(CC)CC)nc(N3CCOCC3)n2)nn1`: the AC50 under setting [1] is 11.2 µM [falling, partial curve, poor fit]. Regarding `COc1ccc(Br)cc1Cn1nnc(C(=O)Nc2ccc3c(c2)OCCO3)c1N`, the concentration at half-maximal activity (AC50) under setting [2] is 2.24 µM [falling, full curve, poor fit]. Still for that read-out and setting: to `O=C(Nc1nc(-c2cccc([N+](=O)[O-])c2)cs1)C(c1ccccc1)c1ccccc1` belongs 2.59 µM [falling, full curve, poor fit]; to `Cc1ccc(N/C(N)=N/c2nc(C)cc(C)n2)cc1`, 7.31 µM [falling, partial curve]. The same measure, in the same setting: next, `COc1cc(C(=O)Nc2sc3c(c2C(=O)O)CCC3)cc(OC)c1OC`: 0.2 µM [falling, full curve, poor fit]; `Cn1ncc2c(NCc3cccc(Cl)c3)ncnc21`: 10 µM [falling, partial curve]. Same read-out and setting: next, `Cc1ccc(S(=O)(=O)Nc2ccc(OCC(=O)N3CCOCC3)cc2)c(C)c1NS(C)(=O)=O`: 0.501 µM [falling, partial curve, poor fit].

With `Cc1cc(C)cc(NC2=NC3(CCCCC3)N=C(N)N2)c1`, the concentration at half-maximal activity (AC50) reads like this: under setting [2], 31.6 µM [rising, single point]; under setting [1], 20 µM [falling, single point]. In the case of `Cc1ccc(OC(C)C(=O)N(Cc2cccs2)C2CCS(=O)(=O)C2)cc1C` (stereo not drawn), the AC50 under setting [2] is 11.2 µM [falling, partial curve, poor fit]. On the same count and under the same terms, to `CC(CC12CC3CC(CC(C3)C1)C2)NCc1ccccc1O` (stereo not drawn) belongs 15.8 µM [falling, single point]; to `O=c1[nH]c(=O)c2nc(-c3ccc(Cl)cc3)cnc2[nH]1`, 35.5 µM [falling, single point]; to `CCOc1cc(/C=C/c2cccc[n+]2C)ccc1O`, 12.6 µM [rising, single point]. Still for that read-out and setting: to `COc1cccc2sc(N3CCN(C(=O)c4ccc([N+](=O)[O-])o4)CC3)nc12` belongs 23.1 µM [falling, single point]; to `N#C/C(=C/c1ccc(N2CCCCC2)cc1)c1cccc(F)c1`, 6.51 µM [rising, partial curve]; to `CCCc1nnc(-c2ccc(OC)cc2)o1`, 25.9 µM [rising, single point]. On the same count and under the same terms, to `O=C(N/N=C/c1coc2ccccc2c1=O)c1ccccc1` belongs 3.16 µM [falling, partial curve, poor fit]; to `O=C(COC(=O)c1ccc(O)cc1O)Nc1nnc(-c2ccccc2)o1`, 16.4 µM [falling, partial curve, poor fit]. `CN(C(=O)CSc1cc(Cl)ccc1Cl)C1CCS(=O)(=O)C1` (stereo not drawn): the AC50 under setting [2] is 23.1 µM [falling, partial curve, poor fit]. Regarding `O=C(NC1CCCC1)c1cc2c(ccc3ccccc32)o1`, the AC50 under setting [2] was 0.231 µM [falling, full curve, poor fit]. As for `COc1ccc(CCNC(=O)c2cc(C3CC3)on2)cc1OC`, the AC50 under setting [2] is 0.501 µM [rising, full curve, poor fit]. Consider `CC1=NN(c2ccc([N+](=O)[O-])cc2)C(c2ccccc2)C1` (stereo not drawn), for which the half-maximal activity concentration (AC50) under setting [2] was 14.1 µM [falling, partial curve, poor fit]. Regarding `Cc1nc(C#N)c(N/N=C/c2cccc(Cl)c2)o1`, the AC50 under setting [2] was 25.9 µM [rising, single point]. Still for that read-out and setting: next, `Cn1cnc2cc(NCc3ccccc3O)ccc21`: 15.8 µM [falling, single point]; `Cc1ccccc1CNC(=O)C(=O)NCC(c1ccco1)S(=O)(=O)c1ccc(F)cc1` (stereo not drawn): 5.62 µM [rising, single point]. Regarding `CC(C)(C)c1ccc(C(=O)NCCC(=O)NNC(=O)COc2ccccc2F)cc1`, the AC50 runs as follows: under setting [2], 20.6 µM [rising, partial curve, poor fit]; under setting [1], 13 µM [falling, partial curve, poor fit]. With `Cc1cccc(CN2CCc3c(OCC(=O)N4CCCc5ccccc54)cccc3C2=O)c1`, the AC50 under setting [2] was 6.51 µM [falling, partial curve].

Take `O=C(O)C1C2C=CC(O2)C1C(=O)Nc1ccccc1C(F)(F)F` (stereo not drawn): the AC50 under setting [2] is 1.46 µM [falling, partial curve, poor fit]. In the case of `CN1CCc2c(sc(/N=C/c3c[nH]c4ccccc34)c2C#N)C1`, the AC50 under setting [2] was 2.82 µM [falling, partial curve, poor fit]. The same measure, in the same setting: to `O=[N+]([O-])c1ccc(COc2cccnc2)cc1` belongs 14.1 µM [rising, single point]; to `CC1CCc2[nH]c3ccc(C(=O)N(C)CC(=O)Nc4ccc(F)cc4)cc3c2C1` (stereo not drawn), 35.5 µM [falling, single point]. On the same count and under the same terms, to `Cc1cccc(OCCOC(=O)c2ccc(F)c(S(=O)(=O)N3CCOCC3)c2)c1` belongs 1.84 µM [rising, partial curve, poor fit]; to `O=C(Nc1ccc2ccccc2c1)N1CCN(c2ncccc2C(F)(F)F)CC1`, 12.6 µM [falling, single point]; to `COc1cccc(/C=C2/SC(=S)N(CCCC(=O)Nc3ccc(O)cc3)C2=O)c1`, 2.82 µM [falling, partial curve]. On the same count and under the same terms, to `Cc1cccc(C(=O)NC(=S)Nc2ccccc2C(=O)O)c1` belongs 10 µM [falling, partial curve]; to `O=C(O)Cc1ccc(NC(=O)COc2ccc3ccccc3c2)cc1`, 11.2 µM [falling, partial curve]. As to `CCCc1[nH]n(-c2nc3ccccc3s2)c(=O)c1C=NCCN1CCOCC1`, the concentration at half-maximal activity (AC50) under setting [2] is 16.4 µM [falling, partial curve, poor fit]. Still for that read-out and setting: to `O=C(CSc1c2c(nc3cc(Cl)ccc13)CCCC2)NCCCN1CCOCC1` belongs 7.94 µM [falling, partial curve, poor fit]. The same measure, in the same setting: to `CC(=O)N1CCc2cc(C(=O)CN3CCCCC3)ccc21` belongs 14.1 µM [rising, single point]; to `Cc1nc2sc(-c3ccccc3)cc2c(=O)n1N`, 3.55 µM [falling, full curve, poor fit]. Same read-out and setting: to `CC(C)c1ccc(/C=N/NC(=O)c2c(Cl)cnn2C)cc1` belongs 9.2 µM [falling, partial curve]; to `CCCC1=C(C(=O)OCC)C(c2ccco2)n2ncnc2N1` (stereo not drawn), 5.62 µM [falling, full curve]; to `N#CC1=C(N)Oc2n[nH]c(-c3ccccc3)c2C1c1cccnc1` (stereo not drawn), 29.1 µM [rising, single point]. Regarding `C=CCOc1ccc(C2CC(C)=NN2c2ccccc2)cc1` (stereo not drawn), the AC50 under setting [2] was 20.6 µM [rising, partial curve, poor fit]. Consider `O=c1[nH]c(NNC(=S)NCc2ccccc2)nc2c1C1(CCCCC1)Cc1ccccc1-2`, for which the half-maximal activity concentration (AC50) is, setting by setting: under setting [2], 29.1 µM [falling, single point]; under setting [1], 18.4 µM [rising, partial curve, poor fit].

Consider `Cc1sc2nc(SCC(=O)NCCO)n(C)c(=O)c2c1C`, for which the AC50 under setting [2] is 10.3 µM [rising, partial curve, poor fit].

Regarding `CCOC(=O)c1cc(-c2ccc(F)cc2)n(CCC(=O)NC2CCN(Cc3ccccc3)CC2)c1C`, the concentration at half-maximal activity (AC50) under setting [2] is 35.5 µM [falling, partial curve, poor fit].

As to `O=S(=O)(Nc1cccc2ncccc12)c1cccs1`, the AC50 by setting is: under setting [2], 7.31 µM [rising, partial curve]; under setting [1], 5.17 µM [falling, full curve]. As to `Nc1cccc(C(=O)OCC(=O)Nc2cccc3c2C(=O)c2ccccc2C3=O)c1`, the AC50 under setting [2] was 4.61 µM [rising, single point]. As to `CCCCC(=O)NCCc1cc2c(OC)ccc(OC)c2[nH]c1=O`, the AC50 under setting [2] is 35.5 µM [rising, partial curve, poor fit]. `Nc1c(N(CCC2=CCCCC2)C(=O)c2ccco2)c(=O)[nH]c(=O)n1Cc1ccccc1`: the AC50 under setting [2] was 18.4 µM [falling, single point].
